These are yes or no findings as the source states them, for the method shown. In cells and extracts the contact can be indirect. Some results given as binding are weak or reduced against the parent protein; the word gives no strength.
Molecular target: T1, RARα2 (pcDNA3-RARα2, transfected in COS-7 cells) (human (RARα2 cDNA amplified from NB4 cells)) (UniProt P10276)
T1 sequence: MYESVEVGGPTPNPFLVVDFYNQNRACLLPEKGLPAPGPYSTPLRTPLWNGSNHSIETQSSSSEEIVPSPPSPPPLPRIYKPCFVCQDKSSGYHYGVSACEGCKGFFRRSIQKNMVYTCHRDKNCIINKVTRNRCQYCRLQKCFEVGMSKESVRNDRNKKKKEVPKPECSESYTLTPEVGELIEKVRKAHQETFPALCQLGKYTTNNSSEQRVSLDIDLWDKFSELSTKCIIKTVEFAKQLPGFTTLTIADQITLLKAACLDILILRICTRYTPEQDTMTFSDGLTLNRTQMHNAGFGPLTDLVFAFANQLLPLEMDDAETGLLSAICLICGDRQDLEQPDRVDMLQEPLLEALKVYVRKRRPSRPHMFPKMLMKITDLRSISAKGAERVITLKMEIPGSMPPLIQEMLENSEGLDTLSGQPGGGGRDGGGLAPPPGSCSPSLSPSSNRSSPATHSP
Assay: co-IP; COS-7 cells co-transfected, treated with vehicle or ATRA (1 uM) for 4 hours; extracts immuno-precipitated with anti-RARα2 antibodies on Protein-G-sepharose; Western blot with anti-RARα antibody RP alpha (F)

B1: RARα1-I396E mutant (protein, UniProt P10276 1-462)
chain: MASNSSSCPTPGGGHLNGYPVPPYAFFFPPMLGGLSPPGALTTLQHQLPVSGYSTPSPATIETQSSSSEEIVPSPPSPPPLPRIYKPCFVCQDKSSGYHYGVSACEGCKGFFRRSIQKNMVYTCHRDKNCIINKVTRNRCQYCRLQKCFEVGMSKESVRNDRNKKKKEVPKPECSESYTLTPEVGELIEKVRKAHQETFPALCQLGKYTTNNSSEQRVSLDIDLWDKFSELSTKCIIKTVEFAKQLPGFTTLTIADQITLLKAACLDILILRICTRYTPEQDTMTFSDGLTLNRTQMHNAGFGPLTDLVFAFANQLLPLEMDDAETGLLSAICLICGDRQDLEQPDRVDMLQEPLLEALKVYVRKRRPSRPHMFPKMLMKITDLRSISAKGAERVETLKMEIPGSMPPLIQEMLENSEGLDTLSGQPGGGGRDGGGLAPPPGSCSPSLSPSSNRSSPATHSP
- binding: binds

B2: RARα1-S157A mutant (protein, UniProt P10276 1-462)
chain: MASNSSSCPTPGGGHLNGYPVPPYAFFFPPMLGGLSPPGALTTLQHQLPVSGYSTPSPATIETQSSSSEEIVPSPPSPPPLPRIYKPCFVCQDKSSGYHYGVSACEGCKGFFRRSIQKNMVYTCHRDKNCIINKVTRNRCQYCRLQKCFEVGMSKEAVRNDRNKKKKEVPKPECSESYTLTPEVGELIEKVRKAHQETFPALCQLGKYTTNNSSEQRVSLDIDLWDKFSELSTKCIIKTVEFAKQLPGFTTLTIADQITLLKAACLDILILRICTRYTPEQDTMTFSDGLTLNRTQMHNAGFGPLTDLVFAFANQLLPLEMDDAETGLLSAICLICGDRQDLEQPDRVDMLQEPLLEALKVYVRKRRPSRPHMFPKMLMKITDLRSISAKGAERVITLKMEIPGSMPPLIQEMLENSEGLDTLSGQPGGGGRDGGGLAPPPGSCSPSLSPSSNRSSPATHSP
- binding: binds

B3: RARα1-S369A mutant (protein, UniProt P10276 1-462)
chain: MASNSSSCPTPGGGHLNGYPVPPYAFFFPPMLGGLSPPGALTTLQHQLPVSGYSTPSPATIETQSSSSEEIVPSPPSPPPLPRIYKPCFVCQDKSSGYHYGVSACEGCKGFFRRSIQKNMVYTCHRDKNCIINKVTRNRCQYCRLQKCFEVGMSKESVRNDRNKKKKEVPKPECSESYTLTPEVGELIEKVRKAHQETFPALCQLGKYTTNNSSEQRVSLDIDLWDKFSELSTKCIIKTVEFAKQLPGFTTLTIADQITLLKAACLDILILRICTRYTPEQDTMTFSDGLTLNRTQMHNAGFGPLTDLVFAFANQLLPLEMDDAETGLLSAICLICGDRQDLEQPDRVDMLQEPLLEALKVYVRKRRPARPHMFPKMLMKITDLRSISAKGAERVITLKMEIPGSMPPLIQEMLENSEGLDTLSGQPGGGGRDGGGLAPPPGSCSPSLSPSSNRSSPATHSP
- binding: no binding

Source: article PMC5514891
